These are yes or no findings as the source states them, for the method shown.

We go through one molecule from paper PMC2719869, “A Mouse Model for the Metabolic Effects of the Human Fat Mass and Obesity Associated FTO Gene” (PLoS Genetics, 2009).

The target of this assay is C-terminal domain of murine FTO (residues 329-502) with I367A (mouse) (UniProt Q8BGW1). As to the kind of experiment: SEC; analytical gel filtration; 250 ug protein on Tricorn 10/300 GL, Superdex 75 (CmFTO, CmFTO I367A) or Superdex 200 (mFTO, mFTO I367A); 50 mM NaCl, 1 mM DTT, 50 mM Tris pH 7.5; calibrated with protein standards; monomer to dimer; both purified. (In general: In gel filtration, larger molecules generally elute earlier.)

B1: C-terminal domain of murine FTO (residues 329-502) with I367A (domain or fragment, UniProt Q8BGW1 329-502)
chain: DYILERCQLALQNVLNDSDDGDVSLKSFDPAVLKQGEEAHNEVEFEWLRQFWFQGNRYKLCTDWWCEPMTHLEGLWKKMESMTNAVLREVKREGLPVEQRSEILSAILVPLTVRQNLRKEWHARCQSRVVRTLPVQQKPDCRPYWEKDDPSMPLPFDLTDVVSELRGQLLEARS
B1: the binding entry is given as “no binding (tested: 250 ug protein loaded)”.
